Measured values: article PMC3706371
These are yes or no findings as the source states them, for the method shown. Some binding calls cover weakened binding; strength is not graded here.

Protein sequences, listed by entry. Tags and fused reporters are not part of them. Lines headed by an entry give the natural chain unless they say otherwise; changes in a name come on top. Residues count along the entry.
UniProt P02461, residues 154-1221: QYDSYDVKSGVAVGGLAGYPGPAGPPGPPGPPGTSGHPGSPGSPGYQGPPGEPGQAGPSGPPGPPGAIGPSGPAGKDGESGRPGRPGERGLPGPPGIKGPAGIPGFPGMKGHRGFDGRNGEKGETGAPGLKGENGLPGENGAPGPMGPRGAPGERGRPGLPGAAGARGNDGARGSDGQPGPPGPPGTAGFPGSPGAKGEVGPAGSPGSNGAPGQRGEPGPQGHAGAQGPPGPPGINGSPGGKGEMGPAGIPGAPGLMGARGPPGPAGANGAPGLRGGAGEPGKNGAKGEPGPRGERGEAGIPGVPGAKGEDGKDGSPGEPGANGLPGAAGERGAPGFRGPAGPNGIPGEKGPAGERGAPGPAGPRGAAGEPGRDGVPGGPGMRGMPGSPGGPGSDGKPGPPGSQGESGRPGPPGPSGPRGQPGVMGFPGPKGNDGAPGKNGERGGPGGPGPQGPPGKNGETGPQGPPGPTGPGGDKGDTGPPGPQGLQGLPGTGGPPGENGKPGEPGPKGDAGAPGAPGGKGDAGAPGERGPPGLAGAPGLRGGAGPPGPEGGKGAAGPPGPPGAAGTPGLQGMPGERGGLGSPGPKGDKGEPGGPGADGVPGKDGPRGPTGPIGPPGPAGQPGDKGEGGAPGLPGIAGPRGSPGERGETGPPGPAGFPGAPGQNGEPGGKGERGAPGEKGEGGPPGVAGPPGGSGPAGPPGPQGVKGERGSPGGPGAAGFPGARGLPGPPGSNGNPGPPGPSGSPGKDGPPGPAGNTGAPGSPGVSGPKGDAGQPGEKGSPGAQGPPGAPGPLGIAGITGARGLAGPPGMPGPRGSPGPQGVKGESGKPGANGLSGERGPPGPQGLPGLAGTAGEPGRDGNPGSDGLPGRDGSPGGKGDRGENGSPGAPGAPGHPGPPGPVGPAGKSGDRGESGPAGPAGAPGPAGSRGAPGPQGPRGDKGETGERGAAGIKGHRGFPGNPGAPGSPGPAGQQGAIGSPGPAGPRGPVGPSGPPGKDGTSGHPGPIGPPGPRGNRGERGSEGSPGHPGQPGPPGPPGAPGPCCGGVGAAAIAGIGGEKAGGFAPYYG
UniProt P26006: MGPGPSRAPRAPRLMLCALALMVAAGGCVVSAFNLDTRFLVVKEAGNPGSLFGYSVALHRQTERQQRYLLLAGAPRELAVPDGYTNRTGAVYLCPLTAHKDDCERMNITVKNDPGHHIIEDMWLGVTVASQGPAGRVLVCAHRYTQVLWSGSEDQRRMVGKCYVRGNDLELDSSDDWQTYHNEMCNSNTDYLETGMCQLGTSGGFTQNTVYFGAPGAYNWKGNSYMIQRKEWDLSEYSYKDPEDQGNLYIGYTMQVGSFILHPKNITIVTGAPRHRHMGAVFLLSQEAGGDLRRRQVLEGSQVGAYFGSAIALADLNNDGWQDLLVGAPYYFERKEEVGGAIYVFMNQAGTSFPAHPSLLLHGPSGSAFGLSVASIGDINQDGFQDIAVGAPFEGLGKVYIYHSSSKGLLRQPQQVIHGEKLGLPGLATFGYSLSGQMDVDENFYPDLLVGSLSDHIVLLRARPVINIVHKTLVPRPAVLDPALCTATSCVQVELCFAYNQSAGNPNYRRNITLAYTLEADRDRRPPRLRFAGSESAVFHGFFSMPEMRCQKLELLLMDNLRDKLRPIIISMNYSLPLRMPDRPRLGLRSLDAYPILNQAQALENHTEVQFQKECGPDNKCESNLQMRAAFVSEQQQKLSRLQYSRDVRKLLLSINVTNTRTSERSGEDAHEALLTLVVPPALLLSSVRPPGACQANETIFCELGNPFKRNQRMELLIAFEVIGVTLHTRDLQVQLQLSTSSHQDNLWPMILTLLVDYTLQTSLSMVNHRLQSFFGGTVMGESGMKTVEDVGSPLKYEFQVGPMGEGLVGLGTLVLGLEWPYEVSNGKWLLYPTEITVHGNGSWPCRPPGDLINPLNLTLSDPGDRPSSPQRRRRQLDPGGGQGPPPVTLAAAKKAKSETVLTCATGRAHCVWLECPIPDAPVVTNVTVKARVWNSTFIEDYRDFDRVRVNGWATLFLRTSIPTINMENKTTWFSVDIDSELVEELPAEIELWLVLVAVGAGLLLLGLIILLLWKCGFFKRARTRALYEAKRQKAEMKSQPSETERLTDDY
UniProt P17301: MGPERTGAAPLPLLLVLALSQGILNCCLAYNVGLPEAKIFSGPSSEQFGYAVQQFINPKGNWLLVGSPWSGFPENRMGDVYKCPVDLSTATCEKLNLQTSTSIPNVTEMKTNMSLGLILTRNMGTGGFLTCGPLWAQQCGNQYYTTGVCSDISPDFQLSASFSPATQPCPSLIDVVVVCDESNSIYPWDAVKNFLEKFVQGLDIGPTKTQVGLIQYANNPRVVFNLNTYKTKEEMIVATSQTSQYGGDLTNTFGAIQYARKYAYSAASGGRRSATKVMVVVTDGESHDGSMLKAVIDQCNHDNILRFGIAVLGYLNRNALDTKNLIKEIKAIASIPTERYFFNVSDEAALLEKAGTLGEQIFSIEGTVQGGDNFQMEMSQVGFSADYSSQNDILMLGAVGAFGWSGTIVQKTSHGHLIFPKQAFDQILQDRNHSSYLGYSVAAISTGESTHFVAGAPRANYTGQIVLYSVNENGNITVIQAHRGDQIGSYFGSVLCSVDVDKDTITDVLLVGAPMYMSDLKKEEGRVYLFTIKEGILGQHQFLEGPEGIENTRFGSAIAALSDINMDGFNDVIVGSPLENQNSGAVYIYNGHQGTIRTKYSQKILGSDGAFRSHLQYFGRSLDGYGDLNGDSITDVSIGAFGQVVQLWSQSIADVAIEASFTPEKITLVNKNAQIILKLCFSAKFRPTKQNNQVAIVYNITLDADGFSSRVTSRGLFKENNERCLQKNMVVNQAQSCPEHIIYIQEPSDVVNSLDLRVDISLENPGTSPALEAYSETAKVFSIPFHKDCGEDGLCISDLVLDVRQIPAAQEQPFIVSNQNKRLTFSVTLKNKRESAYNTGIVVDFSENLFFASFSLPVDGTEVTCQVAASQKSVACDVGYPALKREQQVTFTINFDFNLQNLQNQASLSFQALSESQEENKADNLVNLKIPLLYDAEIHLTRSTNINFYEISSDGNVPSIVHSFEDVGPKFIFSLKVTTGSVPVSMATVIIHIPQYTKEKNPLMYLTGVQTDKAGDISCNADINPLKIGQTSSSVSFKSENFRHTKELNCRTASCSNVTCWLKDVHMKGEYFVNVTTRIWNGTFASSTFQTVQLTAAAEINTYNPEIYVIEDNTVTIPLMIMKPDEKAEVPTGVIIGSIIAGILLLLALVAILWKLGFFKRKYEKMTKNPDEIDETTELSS
UniProt P56199: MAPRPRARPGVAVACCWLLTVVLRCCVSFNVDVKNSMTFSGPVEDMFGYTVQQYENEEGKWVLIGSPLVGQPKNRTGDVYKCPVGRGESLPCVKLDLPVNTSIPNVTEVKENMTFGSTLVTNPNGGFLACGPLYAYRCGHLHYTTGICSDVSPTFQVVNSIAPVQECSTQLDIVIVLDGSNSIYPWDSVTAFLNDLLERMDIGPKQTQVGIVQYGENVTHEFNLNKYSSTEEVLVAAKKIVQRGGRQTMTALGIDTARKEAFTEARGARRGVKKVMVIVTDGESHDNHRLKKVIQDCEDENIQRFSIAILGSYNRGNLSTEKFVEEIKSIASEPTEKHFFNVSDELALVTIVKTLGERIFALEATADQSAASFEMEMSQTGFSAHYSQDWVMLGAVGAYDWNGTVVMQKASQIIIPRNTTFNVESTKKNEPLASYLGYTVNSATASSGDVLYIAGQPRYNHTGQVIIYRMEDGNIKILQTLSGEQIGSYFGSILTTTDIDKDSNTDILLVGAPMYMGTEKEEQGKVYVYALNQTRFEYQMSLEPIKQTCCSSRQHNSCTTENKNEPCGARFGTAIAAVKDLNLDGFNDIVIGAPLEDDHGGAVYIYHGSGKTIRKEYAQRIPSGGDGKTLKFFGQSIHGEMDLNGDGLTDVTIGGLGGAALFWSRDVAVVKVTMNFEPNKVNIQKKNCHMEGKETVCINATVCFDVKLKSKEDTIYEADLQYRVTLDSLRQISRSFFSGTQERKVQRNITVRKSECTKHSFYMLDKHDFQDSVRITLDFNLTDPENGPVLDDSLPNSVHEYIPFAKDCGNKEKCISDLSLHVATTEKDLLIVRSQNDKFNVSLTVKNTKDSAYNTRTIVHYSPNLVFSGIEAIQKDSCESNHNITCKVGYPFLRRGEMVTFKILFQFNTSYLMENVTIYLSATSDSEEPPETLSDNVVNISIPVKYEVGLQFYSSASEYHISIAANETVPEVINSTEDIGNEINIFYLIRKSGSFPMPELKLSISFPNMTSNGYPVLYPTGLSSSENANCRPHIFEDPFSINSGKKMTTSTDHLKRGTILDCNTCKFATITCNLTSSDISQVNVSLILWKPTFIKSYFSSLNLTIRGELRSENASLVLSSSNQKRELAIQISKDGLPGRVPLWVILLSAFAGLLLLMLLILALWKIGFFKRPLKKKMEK

How the values were obtained:
[1] = molecular target: human type III collagen (human) (UniProt P02461); assay: ELISA; solid-phase binding assay: collagen III or laminin-511 coated on 96-well plates (10 nM, overnight, 4°C); integrins 10 nM added for 3 h at RT in TBS, 0.1% BSA, 0.02% Tween-20, 1 mM MnCl2; bound integrin detected with biotinylated anti-Velcro antibody and streptavidin-HRP, absorbance at 490 nm; both purified
[2] = molecular target: human type III collagen (human) (UniProt P02461); assay: ELISA; solid-phase binding assay as a1, but in TBS, 0.1% BSA, 0.02% Tween-20 with 10 mM EDTA instead of 1 mM MnCl2; both purified

Substance | binding [1] | binding [2]
recombinant human α3β1 integrin (soluble heterodimer of the extracellular domains) (from UniProt P26006 33-991; P05556 21-728) (complex) | no binding (tested: 10 nM) | 
recombinant human α2β1 integrin (soluble heterodimer of the extracellular domains) (from UniProt P17301 30-1132; P05556 21-728) (complex) | binds | no binding (condition: with 10 mM EDTA)
recombinant human α1β1 integrin (soluble heterodimer of the extracellular domains) (from UniProt P56199 29-1141; P05556 21-728) (complex) | binds | no binding (condition: with 10 mM EDTA)
